Article PMC4396693, “Structural Basis of Latrophilin-FLRT Interaction” (Structure(London, England:1993), 2015)

By UniProt entry, the sequences of proteins in these tests, tags left out. Where a name states a change or a piece, a line headed by the entry shows the natural chain unless it says otherwise.
UniProt Q8BLU0: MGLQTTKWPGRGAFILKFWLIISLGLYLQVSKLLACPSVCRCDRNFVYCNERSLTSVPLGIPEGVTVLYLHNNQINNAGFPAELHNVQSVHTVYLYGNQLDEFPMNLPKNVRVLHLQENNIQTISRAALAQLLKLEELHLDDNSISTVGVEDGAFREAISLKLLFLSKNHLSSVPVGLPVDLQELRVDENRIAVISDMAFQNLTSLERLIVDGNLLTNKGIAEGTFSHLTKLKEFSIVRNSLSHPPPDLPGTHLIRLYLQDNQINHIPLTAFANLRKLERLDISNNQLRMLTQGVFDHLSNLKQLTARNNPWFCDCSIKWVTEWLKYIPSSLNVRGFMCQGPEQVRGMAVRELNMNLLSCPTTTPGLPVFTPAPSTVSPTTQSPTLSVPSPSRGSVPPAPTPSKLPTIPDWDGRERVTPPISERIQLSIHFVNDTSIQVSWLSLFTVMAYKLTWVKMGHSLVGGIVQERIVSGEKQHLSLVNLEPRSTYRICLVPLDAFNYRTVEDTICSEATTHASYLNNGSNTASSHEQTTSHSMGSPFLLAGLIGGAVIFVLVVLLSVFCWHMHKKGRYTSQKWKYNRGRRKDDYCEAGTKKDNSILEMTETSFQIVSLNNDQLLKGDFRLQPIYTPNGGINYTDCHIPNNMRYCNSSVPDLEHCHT

Experiments:
[1] = molecular target: murine FLRT2^UF full ectodomain (non-Unc5-binding mutant) (murine) (UniProt Q8BLU0); experiment: SPR; FLRT2 ectodomains (wild type, UF, FF) amine-coupled to a CM5 Biacore chip, LPHN3 Olf domain injected as analyte; equilibrium, 25°C, PBS pH 7.5, 0.005% polysorbate 20; 1:1 model; both purified
[2] = molecular target: murine FLRT2^FF full ectodomain (non-dimerizing, non-FLRT-binding mutant) (murine) (UniProt Q8BLU0); experiment: as above

binding [1]: binds
binding [2]: no binding
B1: murine LPHN3 olfactomedin domain (LPHN3^Olf, residues 202-463) (domain or fragment, UniProt Q80TS3 202-463, looked up)
chain: LCPGLLKGVYQSEHLFESDHQSGAWCKDPLQASDKIYYMPWTPYRTDTLTEYSSKDDFIAGRPTTTYKLPHRVDGTGFVVYDGALFFNKERTRNIVKFDLRTRIKSGEAIIANANYHDTSPYRWGGKSDIDLAVDENGLWVIYATEQNNGKIVISQLNPYTLRIEGTWDTAYDKRSASNAFMICGILYVVKSVYEDDDNEATGNKIDYIYNTDQSKDSLVDVPFPNSYQYIAAVDYNPRDNLLYVWNNYHVVKYSLDFGPLD
notes: Latrophilin 3 (LPHN3), mouse, olfactomedin-like domain, residues 202-463; also called LPHN3 Olf domain; olfactomedin domain of murine LPHN3; source: kifunensine-treated HEK293T cells, transiently expressed, purified

Results are given in words; binding and its absence hold for the method and conditions named. For some assays here: Binding can be weak; no strength is given.
